Assay [1] addresses T1, Ube3a (mouse (endogenous in mouse cortex)) (UniProt O08759).
T1 sequence: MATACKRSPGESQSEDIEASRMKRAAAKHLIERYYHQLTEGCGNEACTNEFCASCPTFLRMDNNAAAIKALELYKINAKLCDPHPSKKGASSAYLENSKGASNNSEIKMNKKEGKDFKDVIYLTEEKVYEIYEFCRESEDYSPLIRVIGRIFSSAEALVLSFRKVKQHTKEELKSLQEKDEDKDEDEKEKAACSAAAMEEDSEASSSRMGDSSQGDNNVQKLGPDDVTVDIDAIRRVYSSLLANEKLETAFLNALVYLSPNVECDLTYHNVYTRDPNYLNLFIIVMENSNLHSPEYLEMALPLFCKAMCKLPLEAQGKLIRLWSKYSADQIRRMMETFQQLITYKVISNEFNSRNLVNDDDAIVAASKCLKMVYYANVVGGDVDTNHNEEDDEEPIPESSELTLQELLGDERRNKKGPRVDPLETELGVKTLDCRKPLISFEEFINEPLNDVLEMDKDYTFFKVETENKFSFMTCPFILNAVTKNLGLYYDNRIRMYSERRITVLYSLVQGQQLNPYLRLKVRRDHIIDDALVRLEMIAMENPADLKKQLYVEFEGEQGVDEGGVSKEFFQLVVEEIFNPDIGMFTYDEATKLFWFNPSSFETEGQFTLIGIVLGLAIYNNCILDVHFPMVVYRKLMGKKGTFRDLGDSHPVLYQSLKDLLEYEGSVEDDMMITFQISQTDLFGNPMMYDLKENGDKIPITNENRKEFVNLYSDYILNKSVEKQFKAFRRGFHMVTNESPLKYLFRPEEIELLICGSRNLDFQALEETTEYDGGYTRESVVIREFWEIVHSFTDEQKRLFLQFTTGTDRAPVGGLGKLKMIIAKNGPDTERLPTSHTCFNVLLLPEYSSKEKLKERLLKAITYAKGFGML
The assay is described as follows: co-IP; cortical lysates from wild type mice (P60) immunoprecipitated with Ube3a antibody (Sigma); blots probed with Ube3a, HDAC1, HDAC2 and RAD23A antibodies.

Protein sequences, listed by entry. Tags and fused reporters are not part of them.
UniProt P70288: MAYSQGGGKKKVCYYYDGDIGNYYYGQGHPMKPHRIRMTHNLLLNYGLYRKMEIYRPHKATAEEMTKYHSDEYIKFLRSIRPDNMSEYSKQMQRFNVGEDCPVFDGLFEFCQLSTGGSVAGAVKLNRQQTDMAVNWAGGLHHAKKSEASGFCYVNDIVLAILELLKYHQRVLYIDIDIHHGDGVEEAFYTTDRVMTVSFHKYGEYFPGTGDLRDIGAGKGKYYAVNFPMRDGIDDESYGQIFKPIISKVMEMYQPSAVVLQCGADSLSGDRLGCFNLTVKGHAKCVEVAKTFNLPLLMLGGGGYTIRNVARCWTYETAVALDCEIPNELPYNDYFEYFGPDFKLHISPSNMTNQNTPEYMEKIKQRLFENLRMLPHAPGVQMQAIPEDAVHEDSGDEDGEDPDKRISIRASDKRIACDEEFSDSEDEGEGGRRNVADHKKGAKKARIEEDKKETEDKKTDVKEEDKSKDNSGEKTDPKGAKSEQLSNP
UniProt O09106: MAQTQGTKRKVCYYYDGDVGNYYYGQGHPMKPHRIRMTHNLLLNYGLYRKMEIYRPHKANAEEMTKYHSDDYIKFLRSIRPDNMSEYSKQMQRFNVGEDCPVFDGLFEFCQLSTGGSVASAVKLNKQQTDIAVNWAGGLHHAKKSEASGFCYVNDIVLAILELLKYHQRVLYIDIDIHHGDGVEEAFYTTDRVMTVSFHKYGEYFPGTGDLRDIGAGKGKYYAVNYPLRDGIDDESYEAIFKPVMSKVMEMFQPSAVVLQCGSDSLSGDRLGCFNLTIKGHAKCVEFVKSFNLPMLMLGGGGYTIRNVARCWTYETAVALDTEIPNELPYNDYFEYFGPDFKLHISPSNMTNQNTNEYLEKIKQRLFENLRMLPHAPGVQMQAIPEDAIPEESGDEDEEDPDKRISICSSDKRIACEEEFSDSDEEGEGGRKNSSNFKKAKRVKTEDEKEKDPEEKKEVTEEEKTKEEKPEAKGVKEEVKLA
UniProt P54726: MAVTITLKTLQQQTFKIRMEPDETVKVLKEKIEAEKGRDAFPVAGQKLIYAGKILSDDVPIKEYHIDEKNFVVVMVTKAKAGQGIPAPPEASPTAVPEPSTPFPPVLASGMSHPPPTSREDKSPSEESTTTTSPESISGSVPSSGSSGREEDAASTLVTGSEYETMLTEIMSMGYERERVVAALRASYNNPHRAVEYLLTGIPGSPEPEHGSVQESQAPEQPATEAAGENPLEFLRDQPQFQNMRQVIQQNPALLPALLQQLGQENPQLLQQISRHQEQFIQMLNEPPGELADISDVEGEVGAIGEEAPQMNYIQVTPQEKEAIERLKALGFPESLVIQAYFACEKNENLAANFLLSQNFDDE

For assay [2], the target named is histone deacetylase 2 (HDAC2) (mouse (endogenous in mouse cortex)) (UniProt P70288). The assay is described as follows: co-IP; reverse co-IP: brain lysates (wild type and AS samples) immunoprecipitated with HDAC2 antibody (Cell Signalling Technology); blots detected with HDAC2, Ube3a and ubiquitin antibodies.

Results are given in words; binding and its absence hold for the method and conditions named. In cells and extracts the contact can be indirect. Some entries that bind do so weakly or less than the wild type.

Our source for the binding values is paper PMC6901934.

As for HDAC1 (from UniProt O09106 1-482), in assay [1], the binding result is recorded as “no binding”. As to RAD23A (from UniProt P54726 1-363), the binding result in assay [1] was “binds”. Consider “histone deacetylase 2 (HDAC2) (from UniProt P70288 1-488)”, for which, in assay [1], the binding result is on record as “no binding”.

B1: Ube3a (protein, UniProt O08759 1-870)
chain: MATACKRSPGESQSEDIEASRMKRAAAKHLIERYYHQLTEGCGNEACTNEFCASCPTFLRMDNNAAAIKALELYKINAKLCDPHPSKKGASSAYLENSKGASNNSEIKMNKKEGKDFKDVIYLTEEKVYEIYEFCRESEDYSPLIRVIGRIFSSAEALVLSFRKVKQHTKEELKSLQEKDEDKDEDEKEKAACSAAAMEEDSEASSSRMGDSSQGDNNVQKLGPDDVTVDIDAIRRVYSSLLANEKLETAFLNALVYLSPNVECDLTYHNVYTRDPNYLNLFIIVMENSNLHSPEYLEMALPLFCKAMCKLPLEAQGKLIRLWSKYSADQIRRMMETFQQLITYKVISNEFNSRNLVNDDDAIVAASKCLKMVYYANVVGGDVDTNHNEEDDEEPIPESSELTLQELLGDERRNKKGPRVDPLETELGVKTLDCRKPLISFEEFINEPLNDVLEMDKDYTFFKVETENKFSFMTCPFILNAVTKNLGLYYDNRIRMYSERRITVLYSLVQGQQLNPYLRLKVRRDHIIDDALVRLEMIAMENPADLKKQLYVEFEGEQGVDEGGVSKEFFQLVVEEIFNPDIGMFTYDEATKLFWFNPSSFETEGQFTLIGIVLGLAIYNNCILDVHFPMVVYRKLMGKKGTFRDLGDSHPVLYQSLKDLLEYEGSVEDDMMITFQISQTDLFGNPMMYDLKENGDKIPITNENRKEFVNLYSDYILNKSVEKQFKAFRRGFHMVTNESPLKYLFRPEEIELLICGSRNLDFQALEETTEYDGGYTRESVVIREFWEIVHSFTDEQKRLFLQFTTGTDRAPVGGLGKLKMIIAKNGPDTERLPTSHTCFNVLLLPEYSSKEKLKERLLKAITYAKGFGML
B1: the binding entry in assay [2] is “no binding”.
